These are yes or no findings as the source states them, for the method shown. In cells and extracts the contact can be indirect. A yes stands for co-enrichment or nearness to the bait. Other partners may have been found.
Molecular target: Nucleoprotein (NP) of influenza A virus A/Puerto Rico/8/34 (PR8) H1N1, made in infected cells (Influenza A virus A/Puerto Rico/8/34 (H1N1)) (UniProt P03466)
Test: affinity purification with mass spectrometry

Amino acid sequences for entries named in this document (tags omitted).
UniProt P03466: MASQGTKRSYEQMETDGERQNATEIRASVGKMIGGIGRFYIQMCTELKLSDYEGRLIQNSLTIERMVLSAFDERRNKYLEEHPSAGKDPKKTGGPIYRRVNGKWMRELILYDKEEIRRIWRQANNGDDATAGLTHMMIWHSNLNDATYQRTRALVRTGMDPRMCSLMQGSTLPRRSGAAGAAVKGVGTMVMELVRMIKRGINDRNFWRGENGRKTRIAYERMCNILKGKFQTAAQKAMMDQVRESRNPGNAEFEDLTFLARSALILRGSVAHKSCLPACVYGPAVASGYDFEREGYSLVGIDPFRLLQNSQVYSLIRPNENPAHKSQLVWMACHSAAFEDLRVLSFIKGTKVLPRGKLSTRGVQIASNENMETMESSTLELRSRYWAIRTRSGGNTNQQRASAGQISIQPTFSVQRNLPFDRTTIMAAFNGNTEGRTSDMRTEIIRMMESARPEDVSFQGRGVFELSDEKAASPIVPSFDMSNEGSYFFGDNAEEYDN

## Heterogeneous ribonucleoprotein A1 (hnRNPA1), endogenous in A549 cells (from UniProt P09651-1 1-372)
  binding: binds
